PubChem BioAssay AID1224826 – NIAID, 2016
Here is a random part of about 17,000 reagents. Of all reagents, about 1,110 (6.6%) got an active call. 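Active means lowered or raised reporter signal; replicate intensities are raw and not normalised per plate.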 Entries without a mark were called inactive. Further read-outs or replicates are left out here.

- Screen: 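Regulators of Tlr4 signalling leading to Tnf-alpha expression in macrophages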 (primary screen)
- Cell system: RAW264.7 G9 macrophages from mouse bearing reporters for p65 (GFP) and the Tnf promoter (mCherry)
- Reagents: siRNA pool against mouse genes, 100 nM
- Duration: 16 h of LPS stimulation, after 2 days of siRNA transfection
- Conditions: bacterial lipopolysaccharide (Salmonella minnesota R595), 10 ng/ml
- Detection: 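Nuclear mCherry signal of the Tnf promoter reporter measured by imaging after background removal, scaled to each plate median and turned into robust z-scores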
- Direction: Tnf reporter robust z-score: higher = stronger Tnf promoter reporter signal after LPS
- Rule for the call: 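a well counts as active at a score of -1.3 or below (Tlr4 knock-down control median) or above 3 (raised signal); controls and wells holding fewer than 50 cells are excluded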
- Calls: active = Tnf reporter clearly lowered or raised; inactive = no clear change in Tnf reporter

gene	Tnf reporter robust z-score	fewer than 50 cells in well
Parp14 (poly (ADP-ribose) polymerase family, member 14)	0.52	enough cells in well
Osbpl3 (oxysterol binding protein-like 3)	-0.35	enough cells in well
Spink10 (serine peptidase inhibitor, Kazal type 10)	-0.18	enough cells in well
Vsig1 (V-set and immunoglobulin domain containing 1)	0.01	enough cells in well
Sdk2 (sidekick cell adhesion molecule 2)	0	enough cells in well
Vsx2 (visual system homeobox 2)	-0.46	enough cells in well
Pygm (muscle glycogen phosphorylase)	-0.64	enough cells in well
Slc75a1	-1.13	enough cells in well
Or5b106 (olfactory receptor family 5 subfamily B member 106)	0.13	enough cells in well
Or8g18 (olfactory receptor family 8 subfamily G member 18)	-0.54	enough cells in well
Rgs12 (regulator of G-protein signaling 12)	1.04	enough cells in well
Vmn1r200 (vomeronasal 1 receptor 200)	-0.62	enough cells in well
Krt1 (keratin 1)	-0.92	enough cells in well
Zfp958 (zinc finger protein 958)	-0.05	enough cells in well
Ppp3ca (protein phosphatase 3, catalytic subunit, alpha isoform)	0.11	enough cells in well
Dhx37 (DEAH-box helicase 37)	-0.61	enough cells in well
Tomm70a (translocase of outer mitochondrial membrane 70A)	1.56	enough cells in well
Tshz3 (teashirt zinc finger family member 3)	-0.88	enough cells in well
Sox15 (SRY (sex determining region Y)-box 15)	-0.77	enough cells in well
Prkrip1 (Prkr interacting protein 1 (IL11 inducible))	2.02	enough cells in well
Msx2 (msh homeobox 2)	-0.81	enough cells in well
Cyp4a10 (cytochrome P450, family 4, subfamily a, polypeptide 10)	-0.05	enough cells in well
Trex2 (three prime repair exonuclease 2)	-0.25	enough cells in well
Gpr4 (G protein-coupled receptor 4)	-0.25	enough cells in well
Idh3a (isocitrate dehydrogenase 3 (NAD+) alpha)	0.83	enough cells in well
Mycn (Mycn proto-oncogene, bHLH transcription factor)	-0.24	enough cells in well
Peli2 (pellino 2)	0.08	enough cells in well
Tnfsf18 (tumor necrosis factor (ligand) superfamily, member 18)	-0.48	enough cells in well
Slfnl1 (schlafen like 1)	-0.13	enough cells in well
Stau1 (staufen double-stranded RNA binding protein 1)	4.5 (active)	enough cells in well
Rab1b (RAB1B, member RAS oncogene family)	-0.97	enough cells in well
Taldo1 (transaldolase 1)	-0.97	enough cells in well
Cytl1 (cytokine-like 1)	0.01	enough cells in well
Coq3 (coenzyme Q3 methyltransferase)	0.04	enough cells in well
Pter (phosphotriesterase related)		fewer than 50 cells per well; well left out of calls
Pdgfrl (platelet-derived growth factor receptor-like)	-0.8	enough cells in well
Dnajc5b (DnaJ heat shock protein family (Hsp40) member C5 beta)	1.78	enough cells in well
BC004004 (cDNA sequence BC004004)	0.48	enough cells in well
Laptm4a (lysosomal-associated protein transmembrane 4A)	1.46	enough cells in well
Prkcd (protein kinase C, delta)	1.12	enough cells in well
Tmem218 (transmembrane protein 218)		fewer than 50 cells per well; well left out of calls
Mid2 (midline 2)	-0.34	enough cells in well
Klhl11 (kelch-like 11)	-0.17	enough cells in well
Nob1 (NIN1/RPN12 binding protein 1 homolog)		fewer than 50 cells per well; well left out of calls
Tbr1 (T-box brain transcription factor 1)	0.47	enough cells in well
Zfp324 (zinc finger protein 324)	-0.13	enough cells in well
Usp25 (ubiquitin specific peptidase 25)	-0.63	enough cells in well
Rev1 (REV1, DNA directed polymerase)	-0.29	enough cells in well
Pde7a (phosphodiesterase 7A)	-0.03	enough cells in well
Fimp1 (fertilization influencing membrane protein 1)		fewer than 50 cells per well; well left out of calls
Itga9 (integrin alpha 9)	2.03	enough cells in well
Zrsr2-ps1		fewer than 50 cells per well; well left out of calls
Alkbh3 (alkB homolog 3, alpha-ketoglutarate-dependent dioxygenase)		fewer than 50 cells per well; well left out of calls
Vat1 (vesicle amine transport 1)	-0.83	enough cells in well
Cdc7 (cell division cycle 7)	2.05	enough cells in well
Arfgef2 (ARF guanine nucleotide exchange factor 2)		fewer than 50 cells per well; well left out of calls
Riok2 (RIO kinase 2)	-0.14	enough cells in well
Rpl29 (ribosomal protein L29)	-0.24	enough cells in well

Laid out differently: results already given
gene | Tnf reporter robust z-score | fewer than 50 cells in well
Pde7a (phosphodiesterase 7A) | -0.03 | enough cells in well
Fimp1 (fertilization influencing membrane protein 1) | – | fewer than 50 cells per well; well left out of calls
Itga9 (integrin alpha 9) | 2.03 | enough cells in well
Zrsr2-ps1 | – | fewer than 50 cells per well; well left out of calls
Alkbh3 (alkB homolog 3, alpha-ketoglutarate-dependent dioxygenase) | – | fewer than 50 cells per well; well left out of calls
